In article PMC5967306:
No constants are given. Whether binding was seen depends on the method and setting. Binding seen in cells or lysates may run through a third protein. Some entries that bind do so weakly or less than the wild type. Tags and fused reporters may be left off the sequences shown.

What was measured:
[1] = target: T1, FLAG-tagged wild-type FAM188B (human) (UniProt Q4G0A6); test: co-IP; HCT-116 cells with FAM188B overexpression; FAM188B immunoprecipitates blotted for USP7
T1 sequence: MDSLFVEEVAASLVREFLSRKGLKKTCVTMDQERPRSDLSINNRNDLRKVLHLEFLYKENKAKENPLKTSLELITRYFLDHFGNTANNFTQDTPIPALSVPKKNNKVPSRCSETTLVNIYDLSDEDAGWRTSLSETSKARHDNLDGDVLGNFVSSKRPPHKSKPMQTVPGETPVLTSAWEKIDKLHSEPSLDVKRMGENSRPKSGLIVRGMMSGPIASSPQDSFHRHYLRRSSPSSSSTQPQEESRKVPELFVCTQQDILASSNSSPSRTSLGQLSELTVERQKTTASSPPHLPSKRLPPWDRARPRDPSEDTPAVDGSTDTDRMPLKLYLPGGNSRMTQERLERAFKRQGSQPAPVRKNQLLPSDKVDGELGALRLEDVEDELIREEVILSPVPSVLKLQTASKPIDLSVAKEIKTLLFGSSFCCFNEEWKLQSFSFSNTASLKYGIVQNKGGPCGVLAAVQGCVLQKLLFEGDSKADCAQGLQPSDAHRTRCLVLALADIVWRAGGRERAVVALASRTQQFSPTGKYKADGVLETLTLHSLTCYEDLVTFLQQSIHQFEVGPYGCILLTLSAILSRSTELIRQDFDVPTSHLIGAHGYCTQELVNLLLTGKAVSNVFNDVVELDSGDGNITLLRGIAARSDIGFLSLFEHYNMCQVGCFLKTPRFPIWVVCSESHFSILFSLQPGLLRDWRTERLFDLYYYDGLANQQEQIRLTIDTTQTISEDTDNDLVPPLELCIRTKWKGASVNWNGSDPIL

[2] = target: T1, FLAG-tagged wild-type FAM188B (human); test: co-IP; FLAG-tagged wild-type or deletion-mutant FAM188B overexpressed in HCT-116 cells, immunoprecipitated with anti-FLAG antibodies, blotted for USP7

binding [1]: binds
binding [2]: binds
Substance: USP7 (from UniProt Q93009 1-1102) (enzyme)
